According to the supplement of paper PMC7661543:
± gives the standard deviation of the averaged measurements. Differences between knockout arms are mostly noise.

Tested on: ZR-75-1
Test: relative cell number vs DMSO control (72 h) (% of DMSO); higher = less growth inhibition (more cells)
Protocol: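 QMAP-Seq: a pool of 5 breast cancer cell lines (ZR-75-1, SKBR3, HCC-38, MDA-MB-231, BT-20), each carrying 12 doxycycline-inducible Cas9 sgRNA perturbations (11 knockouts plus non-targeting sgNT), was treated with compounds for 72 h at four 10-fold doses (10 nM-10 uM or 1 nM-1 uM range). Barcodes were amplified and sequenced, and cell number was interpolated from 293T spike-in standard curves. The result is expressed as % of the median of DMSO wells. Two biological replicates.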

[1] = sgRNA knockout: sgATF3, 1000 nM
[2] = sgRNA knockout: sgATF3, 10000 nM
[3] = sgRNA knockout: sgATF4, 1000 nM
[4] = sgRNA knockout: sgATF4, 10000 nM
[5] = sgRNA knockout: sgATF6, 1000 nM
[6] = sgRNA knockout: sgATF6, 10000 nM
[7] = sgRNA knockout: sgATG7, 1000 nM
[8] = sgRNA knockout: sgATG7, 10000 nM
[9] = sgRNA knockout: sgERN1, 1000 nM
[10] = sgRNA knockout: sgERN1, 10000 nM
[11] = sgRNA knockout: sgHSF2, 1000 nM
[12] = sgRNA knockout: sgHSF2, 10000 nM
[13] = sgRNA knockout: sgNFE2L2, 10 nM
[14] = sgRNA knockout: sgNFE2L2, 100 nM
[15] = sgRNA knockout: sgNFE2L2, 1000 nM
[16] = sgRNA knockout: sgNFE2L2, 10000 nM
[17] = sgRNA knockout: sgSLC35F2, 10 nM
[18] = sgRNA knockout: sgSLC35F2, 100 nM
[19] = sgRNA knockout: sgSLC35F2, 1000 nM
[20] = sgRNA knockout: sgSLC35F2, 10000 nM
[21] = sgRNA knockout: sgXBP1, 1000 nM
[22] = sgRNA knockout: sgXBP1, 10000 nM

Structure (SMILES) | relative cell number (sgRNA knockout: sgATF3, 10 nM) | relative cell number (sgRNA knockout: sgATF3, 100 nM) | relative cell number [1] | relative cell number [2] | relative cell number (sgRNA knockout: sgATF4, 10 nM) | relative cell number (sgRNA knockout: sgATF4, 100 nM) | relative cell number [3] | relative cell number [4] | relative cell number (sgRNA knockout: sgATF6, 10 nM) | relative cell number (sgRNA knockout: sgATF6, 100 nM) | relative cell number [5] | relative cell number [6] | relative cell number (sgRNA knockout: sgATG7, 10 nM) | relative cell number (sgRNA knockout: sgATG7, 100 nM) | relative cell number [7] | relative cell number [8] | relative cell number (sgRNA knockout: sgERN1, 10 nM) | relative cell number (sgRNA knockout: sgERN1, 100 nM) | relative cell number [9] | relative cell number [10] | relative cell number (sgRNA knockout: sgHSF2, 10 nM) | relative cell number (sgRNA knockout: sgHSF2, 100 nM) | relative cell number [11] | relative cell number [12] | relative cell number [13] | relative cell number [14] | relative cell number [15] | relative cell number [16] | relative cell number [17] | relative cell number [18] | relative cell number [19] | relative cell number [20] | relative cell number (sgRNA knockout: sgXBP1, 10 nM) | relative cell number (sgRNA knockout: sgXBP1, 100 nM) | relative cell number [21] | relative cell number [22]
COc1ccc(-c2ccc3c(N4CCOCC4)nc(N4C[C@@H](C)O[C@@H](C)C4)nc3n2)cc1CO | 99.7 ± 36 | 135 ± 2.5 | 96 ± 1.1 | 37 ± 2.9 | 71.6 ± 10 | 110 ± 11 | 108 ± 18 | 35.6 ± 1.4 | 101 ± 70 | 132 ± 87 | 71.9 ± 6.7 | 33.7 ± 4.2 | 110 ± 20 | 101 ± 23 | 72.3 ± 30 | 25.4 ± 11 | 82.1 ± 24 | 112 ± 12 | 92.8 ± 14 | 39.1 ± 3.2 | 98.2 ± 18 | 103 ± 13 | 74.5 ± 7 | 31.2 ± 5.8 | 90.5 ± 17 | 85.7 ± 14 | 81.19 ± 0.34 | 33 ± 3.7 | 101 ± 3.1 | 123 ± 42 | 123 ± 30 | 32.5 ± 6.6 | 107 ± 3.7 | 95.9 ± 18 | 86 ± 4.1 | 30.8 ± 7.4
C[C@@H](Oc1cc(-n2cnc3ccc(CN4CCN(C)CC4)cc32)sc1C(N)=O)c1ccccc1C(F)(F)F | 86 ± 9.1 | 17.2 ± 9.6 | 37.3 ± 9.1 | 31.7 ± 4.5 | 105 ± 4 | 27.3 ± 6.2 | 40 ± 7.3 | 36 ± 0.85 | 94.2 ± 31 | 23.6 ± 3.5 | 35.5 ± 2.5 | 36.7 ± 2.2 | 85.1 ± 31 | 24 ± 0.4 | 40.2 ± 3.6 | 39.3 ± 21 | 98.7 ± 6.7 | 19.5 ± 14 | 39.6 ± 7.2 | 47.5 ± 1.6 | 96.5 ± 16 | 30.5 ± 1 | 38.5 ± 11 | 42.5 ± 13 | 113 ± 0.63 | 21.6 ± 7.7 | 35.6 ± 14 | 42.9 ± 14 | 59.3 ± 4.9 | 26.9 ± 1.9 | 50.7 ± 11 | 24.3 ± 20 | 107 ± 2.3 | 20.2 ± 0.26 | 32.8 ± 3.3 | 37.8 ± 5.7
C[C@@]1(C(=O)Nc2ccc(F)nc2)CCCN1c1nc(Nc2cc(C3CC3)n[nH]2)c2cccn2n1 | 68.4 ± 13 | 60.1 ± 7.9 | 54.5 ± 6.8 | 42 ± 21 | 61.2 ± 9.8 | 90.2 ± 2.6 | 50.8 ± 1.1 | 31.5 ± 8 | 83.2 ± 11 | 82.2 ± 7.9 | 46.2 ± 10 | 28.1 ± 11 | 102 ± 15 | 61.9 ± 4 | 48 ± 8.6 | 40.8 ± 2.5 | 104 ± 12 | 84.4 ± 1.1 | 43.3 ± 2.1 | 41.1 ± 5.7 | 88.2 ± 20 | 63.5 ± 1.8 | 41.9 ± 2.5 | 38.6 ± 7.6 | 79.3 ± 2.7 | 106 ± 7.2 | 47.7 ± 0.98 | 29.8 ± 3.6 | 74.5 ± 2.7 | 63.3 ± 15 | 37.3 ± 10 | 28.8 ± 0.32 | 87 ± 1.8 | 85 ± 6.8 | 45.84 ± 0.29 | 30.2 ± 4.5
Cc1ccccc1-n1c(Cn2cnc3c(N)ncnc32)nc2cccc(C)c2c1=O | 104 ± 7.2 | 123 ± 20 | 103 ± 13 | 97.3 ± 14 | 110 ± 26 | 138 ± 28 | 102 ± 40 | 102 ± 24 | 98 ± 2.5 | 136 ± 24 | 69.6 ± 1.3 | 88.9 ± 22 | 98.3 ± 18 | 108 ± 27 | 69.6 ± 28 | 95.9 ± 14 | 85.7 ± 17 | 114 ± 47 | 93.4 ± 9.7 | 114 ± 24 | 90.2 ± 9.2 | 97.1 ± 22 | 74.1 ± 9.5 | 91.9 ± 1.4 | 118 ± 15 | 118 ± 54 | 89.5 ± 3.4 | 106 ± 9.5 | 116 ± 22 | 140 ± 11 | 106 ± 66 | 96.5 ± 12 | 87.3 ± 6.8 | 104 ± 36 | 75.4 ± 12 | 98.7 ± 11
Cc1cnc(-c2cnc(NCCNc3ccc(C#N)cn3)nc2-c2ccc(Cl)cc2Cl)[nH]1 | 119 ± 17 | 93 ± 8.8 | 120 ± 16 | 80.5 ± 19 | 111 ± 34 | 104 ± 16 | 116 ± 33 | 111 ± 7 | 99 ± 18 | 117 ± 12 | 98.9 ± 58 | 92.9 ± 20 | 76.9 ± 12 | 78.8 ± 22 | 91.1 ± 8 | 76.3 ± 20 | 108 ± 11 | 96.3 ± 5.6 | 83.8 ± 32 | 75 ± 28 | 84.3 ± 7 | 90 ± 1.7 | 89.1 ± 38 | 86.72 ± 0.86 | 75.2 ± 25 | 95.7 ± 14 | 68.3 ± 18 | 104 ± 44 | 87.5 ± 15 | 63.5 ± 34 | 38.5 ± 35 | 92.5 ± 9.4 | 72.1 ± 18 | 99.9 ± 2.2 | 87.3 ± 7.4 | 98.77 ± 0.83
